According to patent US6428967:
No constants are given. Whether binding was seen depends on the method and setting. Some binding calls cover weakened binding; strength is not graded here. For some assays here: Sequences can lack the tags named with a protein. Values belong to the binder of their own block, whether it stands above or below them.

The chains behind the UniProt entries cited, without tags or fusion partners. Where a name states a change or a piece, a line headed by the entry shows the natural chain unless it says otherwise.
UniProt Q924X6: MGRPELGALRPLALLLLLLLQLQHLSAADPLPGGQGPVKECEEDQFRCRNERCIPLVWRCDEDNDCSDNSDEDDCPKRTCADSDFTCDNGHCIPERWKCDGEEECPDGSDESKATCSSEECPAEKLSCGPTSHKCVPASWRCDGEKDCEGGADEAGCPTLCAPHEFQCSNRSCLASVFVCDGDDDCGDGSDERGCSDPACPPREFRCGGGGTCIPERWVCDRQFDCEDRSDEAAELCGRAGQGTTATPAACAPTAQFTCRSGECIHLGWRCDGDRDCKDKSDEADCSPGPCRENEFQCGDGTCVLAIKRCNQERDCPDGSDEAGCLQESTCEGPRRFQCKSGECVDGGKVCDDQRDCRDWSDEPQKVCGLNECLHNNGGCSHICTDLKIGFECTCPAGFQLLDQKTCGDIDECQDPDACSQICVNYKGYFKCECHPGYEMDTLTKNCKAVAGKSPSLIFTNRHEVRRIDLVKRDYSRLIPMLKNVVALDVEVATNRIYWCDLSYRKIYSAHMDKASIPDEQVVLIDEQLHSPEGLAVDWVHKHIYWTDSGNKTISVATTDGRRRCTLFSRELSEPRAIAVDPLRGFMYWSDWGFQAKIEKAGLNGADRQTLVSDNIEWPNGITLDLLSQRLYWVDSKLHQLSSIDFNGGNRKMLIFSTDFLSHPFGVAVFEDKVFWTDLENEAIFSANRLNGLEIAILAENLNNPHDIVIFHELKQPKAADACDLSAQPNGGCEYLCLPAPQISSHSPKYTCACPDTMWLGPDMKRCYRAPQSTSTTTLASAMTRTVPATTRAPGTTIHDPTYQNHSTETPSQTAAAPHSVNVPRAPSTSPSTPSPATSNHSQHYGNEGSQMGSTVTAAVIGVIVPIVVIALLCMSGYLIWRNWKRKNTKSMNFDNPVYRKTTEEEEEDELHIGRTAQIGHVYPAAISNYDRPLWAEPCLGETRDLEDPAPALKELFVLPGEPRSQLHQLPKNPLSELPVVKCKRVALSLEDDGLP
UniProt Q07954: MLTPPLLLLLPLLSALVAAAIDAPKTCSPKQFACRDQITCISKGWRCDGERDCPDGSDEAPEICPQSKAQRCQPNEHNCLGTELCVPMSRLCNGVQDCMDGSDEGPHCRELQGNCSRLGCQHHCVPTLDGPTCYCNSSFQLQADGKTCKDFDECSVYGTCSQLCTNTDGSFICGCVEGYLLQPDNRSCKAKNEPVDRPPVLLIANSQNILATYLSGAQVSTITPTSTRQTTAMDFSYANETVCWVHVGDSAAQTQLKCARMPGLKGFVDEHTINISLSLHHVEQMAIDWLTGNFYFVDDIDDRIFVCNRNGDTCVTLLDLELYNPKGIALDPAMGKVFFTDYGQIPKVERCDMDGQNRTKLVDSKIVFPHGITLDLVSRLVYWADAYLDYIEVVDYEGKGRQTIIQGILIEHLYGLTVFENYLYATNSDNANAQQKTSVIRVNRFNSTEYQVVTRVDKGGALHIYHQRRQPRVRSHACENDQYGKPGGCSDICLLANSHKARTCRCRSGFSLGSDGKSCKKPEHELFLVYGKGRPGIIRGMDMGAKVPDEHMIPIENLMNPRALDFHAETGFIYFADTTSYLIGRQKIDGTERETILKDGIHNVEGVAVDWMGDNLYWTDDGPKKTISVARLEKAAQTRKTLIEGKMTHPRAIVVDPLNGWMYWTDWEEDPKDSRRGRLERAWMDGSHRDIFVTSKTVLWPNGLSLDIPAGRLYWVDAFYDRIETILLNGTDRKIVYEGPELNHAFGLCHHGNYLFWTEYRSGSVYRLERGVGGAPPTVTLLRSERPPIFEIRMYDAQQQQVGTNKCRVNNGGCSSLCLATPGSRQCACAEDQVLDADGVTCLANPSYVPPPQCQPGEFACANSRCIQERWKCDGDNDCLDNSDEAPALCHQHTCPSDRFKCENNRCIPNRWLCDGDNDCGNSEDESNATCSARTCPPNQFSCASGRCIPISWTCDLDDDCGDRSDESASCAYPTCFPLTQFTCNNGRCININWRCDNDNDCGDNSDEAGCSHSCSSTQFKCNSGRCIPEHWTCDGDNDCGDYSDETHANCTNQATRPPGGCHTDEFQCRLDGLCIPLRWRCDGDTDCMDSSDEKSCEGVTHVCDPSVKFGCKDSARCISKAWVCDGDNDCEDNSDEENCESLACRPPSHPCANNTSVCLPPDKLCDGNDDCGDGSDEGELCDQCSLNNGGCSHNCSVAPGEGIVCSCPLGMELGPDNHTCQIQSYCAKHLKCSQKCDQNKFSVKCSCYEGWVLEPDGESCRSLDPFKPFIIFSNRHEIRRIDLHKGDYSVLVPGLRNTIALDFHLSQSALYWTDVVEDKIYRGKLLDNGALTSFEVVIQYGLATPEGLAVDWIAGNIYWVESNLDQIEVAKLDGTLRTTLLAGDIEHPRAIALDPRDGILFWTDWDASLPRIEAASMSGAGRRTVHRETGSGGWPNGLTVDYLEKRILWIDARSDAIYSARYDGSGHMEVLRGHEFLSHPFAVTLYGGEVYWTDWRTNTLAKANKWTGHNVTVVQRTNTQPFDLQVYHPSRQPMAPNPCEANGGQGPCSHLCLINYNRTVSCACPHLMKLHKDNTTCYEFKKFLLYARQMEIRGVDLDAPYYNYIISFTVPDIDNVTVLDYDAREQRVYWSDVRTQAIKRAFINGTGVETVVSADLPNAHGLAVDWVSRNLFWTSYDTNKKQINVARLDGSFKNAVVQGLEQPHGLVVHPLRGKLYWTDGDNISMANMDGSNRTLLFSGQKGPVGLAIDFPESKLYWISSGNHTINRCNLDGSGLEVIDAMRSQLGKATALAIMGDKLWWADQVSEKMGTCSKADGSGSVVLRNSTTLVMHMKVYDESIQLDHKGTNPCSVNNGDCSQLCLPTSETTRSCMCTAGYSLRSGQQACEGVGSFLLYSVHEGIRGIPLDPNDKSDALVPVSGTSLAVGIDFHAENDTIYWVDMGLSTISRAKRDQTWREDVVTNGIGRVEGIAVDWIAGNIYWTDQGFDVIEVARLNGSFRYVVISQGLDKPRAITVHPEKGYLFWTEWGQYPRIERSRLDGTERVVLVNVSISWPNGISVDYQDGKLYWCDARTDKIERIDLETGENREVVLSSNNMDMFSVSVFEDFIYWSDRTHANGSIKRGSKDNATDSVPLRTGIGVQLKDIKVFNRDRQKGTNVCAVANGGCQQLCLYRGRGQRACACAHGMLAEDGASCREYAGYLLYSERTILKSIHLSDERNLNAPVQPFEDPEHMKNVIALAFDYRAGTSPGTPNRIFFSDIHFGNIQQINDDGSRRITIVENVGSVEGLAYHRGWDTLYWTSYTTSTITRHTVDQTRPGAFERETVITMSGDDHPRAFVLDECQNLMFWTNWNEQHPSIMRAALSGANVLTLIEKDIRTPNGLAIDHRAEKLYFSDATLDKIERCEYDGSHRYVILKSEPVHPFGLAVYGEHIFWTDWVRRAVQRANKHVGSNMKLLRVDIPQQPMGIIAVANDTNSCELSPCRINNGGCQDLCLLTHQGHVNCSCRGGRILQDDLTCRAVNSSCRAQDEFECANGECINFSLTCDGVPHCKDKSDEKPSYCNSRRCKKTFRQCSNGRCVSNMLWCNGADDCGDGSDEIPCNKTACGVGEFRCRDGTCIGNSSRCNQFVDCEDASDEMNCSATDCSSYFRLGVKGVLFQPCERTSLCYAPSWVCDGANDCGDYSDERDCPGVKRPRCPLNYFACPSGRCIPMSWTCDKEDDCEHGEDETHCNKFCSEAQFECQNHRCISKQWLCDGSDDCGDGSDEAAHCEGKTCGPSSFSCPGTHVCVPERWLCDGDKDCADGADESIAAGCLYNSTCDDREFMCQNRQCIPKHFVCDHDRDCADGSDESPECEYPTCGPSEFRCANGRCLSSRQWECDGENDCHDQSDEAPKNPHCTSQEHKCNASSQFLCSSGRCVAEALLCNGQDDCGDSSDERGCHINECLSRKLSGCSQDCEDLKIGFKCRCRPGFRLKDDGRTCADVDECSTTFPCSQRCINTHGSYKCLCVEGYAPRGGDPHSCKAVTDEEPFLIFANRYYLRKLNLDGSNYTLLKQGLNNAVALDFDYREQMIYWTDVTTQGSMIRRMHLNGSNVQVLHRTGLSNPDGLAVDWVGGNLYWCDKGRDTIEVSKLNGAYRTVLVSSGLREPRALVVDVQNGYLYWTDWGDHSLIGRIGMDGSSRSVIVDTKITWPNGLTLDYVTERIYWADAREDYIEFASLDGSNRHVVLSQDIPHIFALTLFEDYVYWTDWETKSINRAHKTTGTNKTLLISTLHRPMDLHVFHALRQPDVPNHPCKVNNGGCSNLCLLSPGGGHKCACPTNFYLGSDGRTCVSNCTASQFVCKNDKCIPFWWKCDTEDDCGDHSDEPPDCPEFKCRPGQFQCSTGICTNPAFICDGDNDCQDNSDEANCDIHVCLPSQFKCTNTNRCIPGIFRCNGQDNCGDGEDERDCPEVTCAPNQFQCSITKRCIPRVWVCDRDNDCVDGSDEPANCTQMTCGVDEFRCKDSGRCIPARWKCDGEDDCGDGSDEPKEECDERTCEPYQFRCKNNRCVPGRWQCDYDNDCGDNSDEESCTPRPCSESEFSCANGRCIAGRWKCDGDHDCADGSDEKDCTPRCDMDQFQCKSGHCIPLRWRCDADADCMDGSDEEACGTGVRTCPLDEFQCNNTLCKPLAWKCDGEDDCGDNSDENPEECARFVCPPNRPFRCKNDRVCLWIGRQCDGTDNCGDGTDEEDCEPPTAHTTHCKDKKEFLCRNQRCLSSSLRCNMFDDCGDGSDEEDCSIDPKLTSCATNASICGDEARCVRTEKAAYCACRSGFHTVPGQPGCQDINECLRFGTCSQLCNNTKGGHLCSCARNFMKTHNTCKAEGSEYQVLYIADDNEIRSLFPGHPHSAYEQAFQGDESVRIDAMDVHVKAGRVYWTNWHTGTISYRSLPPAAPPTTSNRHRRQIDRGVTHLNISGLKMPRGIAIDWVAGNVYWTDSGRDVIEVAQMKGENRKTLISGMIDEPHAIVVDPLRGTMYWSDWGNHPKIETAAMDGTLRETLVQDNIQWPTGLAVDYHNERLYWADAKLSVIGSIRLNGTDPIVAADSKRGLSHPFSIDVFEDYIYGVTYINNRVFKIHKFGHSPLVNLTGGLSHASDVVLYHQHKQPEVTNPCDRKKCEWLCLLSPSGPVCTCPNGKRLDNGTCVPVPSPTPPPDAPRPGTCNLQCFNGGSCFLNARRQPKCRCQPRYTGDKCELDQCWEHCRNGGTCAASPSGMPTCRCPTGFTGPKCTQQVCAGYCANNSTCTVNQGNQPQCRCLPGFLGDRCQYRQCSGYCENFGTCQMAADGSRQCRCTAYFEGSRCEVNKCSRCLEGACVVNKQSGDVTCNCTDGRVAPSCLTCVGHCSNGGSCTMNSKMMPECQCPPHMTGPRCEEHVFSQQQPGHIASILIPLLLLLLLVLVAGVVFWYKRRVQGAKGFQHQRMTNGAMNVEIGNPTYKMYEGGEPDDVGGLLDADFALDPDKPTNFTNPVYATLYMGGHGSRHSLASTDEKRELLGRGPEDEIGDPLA

Experiments:
[1] = target: ApoER2 cytoplasmic tail with its alternatively spliced insert, LexA fusion protein (ApoER2+ mouse) (mouse) (UniProt Q924X6); test: yeast two-hybrid, LexA tail bait against B42AD-Dab1
[2] = target: LRPB, part of the LRP cytoplasmic tail, LexA fusion protein (LRPB human) (human) (UniProt Q07954); test: as above
[3] = target: LDL receptor cytoplasmic tail LexA fusion protein (LDLR human) (human) (UniProt P01130); test: as above
[4] = target: VLDL receptor cytoplasmic tail LexA fusion protein (VLDLR mouse) (mouse); test: as above
[5] = target: T1, Megalin complete cytoplasmic tail LexA fusion protein (Meg human) (human) (UniProt P98164); test: as above
T1 sequence: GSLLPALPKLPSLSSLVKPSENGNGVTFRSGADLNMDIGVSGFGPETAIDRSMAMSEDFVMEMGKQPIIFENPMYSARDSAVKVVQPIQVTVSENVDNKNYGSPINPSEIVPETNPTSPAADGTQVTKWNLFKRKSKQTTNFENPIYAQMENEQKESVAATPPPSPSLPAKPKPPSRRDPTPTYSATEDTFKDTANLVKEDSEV

[6] = target: LRP complete cytoplasmic tail LexA fusion protein (LRP human) (human) (UniProt Q07954); test: as above
[7] = target: T2, LR11 cytoplasmic tail LexA fusion protein (LR11 human) (human); test: as above
T2 sequence: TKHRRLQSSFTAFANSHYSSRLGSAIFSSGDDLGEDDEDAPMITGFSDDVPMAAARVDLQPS

[8] = target: T3, MegA, part of the Megalin cytoplasmic tail, LexA fusion protein (MegA human) (human) (UniProt P98164); test: as above
T3 sequence: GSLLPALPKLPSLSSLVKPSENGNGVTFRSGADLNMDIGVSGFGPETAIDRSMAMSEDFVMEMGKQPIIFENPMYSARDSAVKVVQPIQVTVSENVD

[9] = target: ApoER2 cytoplasmic tail without its alternatively spliced insert, LexA fusion protein (ApoER2- mouse) (mouse) (UniProt Q924X6); test: as above
[10] = target: ApoER2 cytoplasmic tail with its alternatively spliced insert, LexA fusion protein (ApoER2+ mouse) (mouse) (UniProt Q924X6); test: yeast two-hybrid, told again
[11] = target: LDL receptor cytoplasmic tail LexA fusion protein (LDLR human) (human) (UniProt P01130); test: yeast two-hybrid, told again
[12] = target: VLDL receptor cytoplasmic tail LexA fusion protein (VLDLR mouse) (mouse); test: yeast two-hybrid, told again
[13] = target: T1, Megalin complete cytoplasmic tail LexA fusion protein (Meg human) (human); test: yeast two-hybrid, told again
[14] = target: LRP complete cytoplasmic tail LexA fusion protein (LRP human) (human) (UniProt Q07954); test: yeast two-hybrid, told again
[15] = target: T2, LR11 cytoplasmic tail LexA fusion protein (LR11 human) (human); test: yeast two-hybrid, told again
[16] = target: ApoER2 cytoplasmic tail without its alternatively spliced insert, LexA fusion protein (ApoER2- mouse) (mouse) (UniProt Q924X6); test: yeast two-hybrid, told again
[17] = target: ApoER2 cytoplasmic tail with its alternatively spliced insert, LexA fusion protein (ApoER2+ mouse) (mouse) (UniProt Q924X6); test: yeast two-hybrid, LexA tail bait against prey

binding [1]: binds | binding [2]: binds | binding [3]: binds | binding [4]: binds | binding [5]: binds | binding [6]: binds | binding [7]: binds | binding [8]: binds | binding [9]: binds | binding [10]: binds | binding [11]: binds | binding [12]: binds | binding [13]: binds | binding [14]: binds | binding [15]: binds | binding [16]: binds
B1: Disabled-1 (Dab1), two-hybrid prey in pB42AD (protein, UniProt P97318-2 1-555, looked up, not shown: large carriers)
chain: MSTETELQVAVKTSAKKDSRKKGQDRSEATLIKRFKGEGVRYKAKLIGIDEVSAARGDKLCQDSMMKLKGVVAGARSKGEHKQKIFLTISFGGIKIFDEKTGALQHHHAVHEISYIAKDITDHRAFGYVCGKEGNHRFVAIKTAQAAEPVILDLRDLFQLIYELKQREELEKKAQKDKQCEQAVYQTILEEDVEDPVYQYIVFEAGHEPIRDPETEENIYQVPTSQKKEGVYDVPKSQPVSAVTQLELFGDMSTPPDITSPPTPATPGDAFLPSSSQTLPGSADVFGSMSFGTAAVPSGYVAMGAVLPSFWGQQPLVQQQIAMGAQPPVAQVIPGAQPIAWGQPGLFPATQQAWPTVAGQFPPAAFMPTQTVMPLAAAMFQGPLTPLATVPGTNDSARSSPQSDKPRQKMGKESFKDFQMVQPPPVPSRKPDQPSLTCTSEAFSSYFNKVGVAQDTDDCDDFDISQLNLTPVTSTTPSTNSPPTPAPRQSSPSKSSASHVSDPTADDIFEEGFESPSKSEEQEAPDGSQASSTSDPFGEPSGEPSGDNISPQDGS

binding [17]: binds
B2: JIP-1 (protein, not shown: large carriers)
chain: MAERESGLGGGAASPPAASPFLGLHIASPPNFRLTHDISLEEFEDEDLSEITDECGISLQCKDTLSLRPPRAGLLSAGSSGSAGSRLQAEMLQMDLIDAAGDTPGAEDDEEEEDDELAAQRPGVGPPKAESNQDPAPRSQGQGPGTGSGDTYRPKRPTTLNLFPQVPRSQDTLNNNSLGKKHSWQDRVSRSSSPLKTGEQTPPHEHICLSDELPPQGSPVPTQDRGTSTDSPCRRSAATQMAPPSGPPATAPGGRGHSHRDRIHYQADVRLEATEEIYLTPVQRPPDPAEPTSTFMPPTESRMSVSSDPDPAAYSVTAGRPHPSISEEDEGFDCLSSPERAEPPGGGWRGSLGEPPPPPRASLSSDTSALSYDSVKYTLVVDEHAQLELVSLRPCFGDYSDESDSATVYDNCASASSPYESAIGEEYEEAPQPRPPTCLSEDSTPDEPDVFSKKFLNVFMSGRSRSSSAESFGLFSCVINGEEHEQTHRAIFRFVPRHEDELELEVDDPLLVELQAEDYWYEAYNMRTGARGVFPAYYAIEVTKEPEHMAALAKNSCVLEISVRGVKIGVKADDALEAKGNKCSHFFQLKNISFCGYHPKNNKYFGFITKHPADHRFACHVFVSEDSTKALAESVGRAFQQFYKQFVEYTCPTEDIYLE
